This is an account of results in article PMC10681713.

Chains of the proteins cited; added tags and fusions are not shown. A line that says so, or that is headed by a name, gives the form on record, which may keep a tag or linker.
CX3 (RAD51C-XRCC3) (Homo sapiens), one chain, as listed by the source, chain 1 of 2: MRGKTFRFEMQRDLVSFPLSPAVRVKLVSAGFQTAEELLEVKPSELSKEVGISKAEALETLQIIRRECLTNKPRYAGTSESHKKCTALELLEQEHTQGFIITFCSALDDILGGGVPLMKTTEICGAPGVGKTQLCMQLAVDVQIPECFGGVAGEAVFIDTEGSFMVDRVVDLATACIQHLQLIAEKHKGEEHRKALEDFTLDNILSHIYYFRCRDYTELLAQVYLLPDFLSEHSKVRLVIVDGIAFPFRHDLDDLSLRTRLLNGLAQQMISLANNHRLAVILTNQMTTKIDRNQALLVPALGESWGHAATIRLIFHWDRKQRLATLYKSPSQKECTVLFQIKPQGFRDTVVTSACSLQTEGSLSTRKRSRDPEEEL
CX3 (RAD51C-XRCC3) (Homo sapiens), one chain, as listed by the source, chain 2 of 2: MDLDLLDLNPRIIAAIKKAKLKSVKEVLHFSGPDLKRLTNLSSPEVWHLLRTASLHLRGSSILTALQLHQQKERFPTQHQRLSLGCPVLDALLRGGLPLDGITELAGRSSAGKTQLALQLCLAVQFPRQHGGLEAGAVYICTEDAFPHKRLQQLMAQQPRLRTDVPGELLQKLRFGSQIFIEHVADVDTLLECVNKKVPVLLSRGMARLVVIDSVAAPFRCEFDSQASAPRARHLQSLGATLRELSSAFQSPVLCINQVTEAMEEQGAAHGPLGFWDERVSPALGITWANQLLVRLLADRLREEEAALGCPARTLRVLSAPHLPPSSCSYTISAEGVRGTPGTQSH

For at least one entry, the source does not settle the construct or the ends of the probe. The comparison behind a weaker result is the experiment's own reference, which may not be listed here.

The data set has as its system CX3 (RAD51C-XRCC3) (Homo sapiens). Description: EMSA. The conditions noted are these: 1 mM ATP, 58 nM DNA, 37 °C, 10 min, paralogs: 50 mM KCl, 0.8% agarose gel, RAD51: 100 mM KCl, 2 mM ATP, 6% TBE-PAGE, recombinant protein, protein details: N-terminal His6-Flag on RAD51C, label: 5' Cy3 on oligo 13. On the technique in general: Mobility shift assays separate free from complexed probe on a gel.

As for “TTAGAGCTTAATTGCTGAATCTGGTGCTGTGGGTGAACCTGCAGGTGGGCAAAGA (double strand) [dsDNA 55 bp (oligo 13 + oligo 14)]”, the binding result is reported as “binds more weakly”.
